# Values quoted from earlier work as cited in patent US11026914B2 (DelMar Pharmaceuticals, Inc., priority 2013, dated 2021).
# For at least one compound, name, drawing or mass did not settle the structure.
# Test system: GBM
# Conditions: historical data; cited from earlier work
structure (smiles),measurement,value
Cn1nnc2c(C(N)=O)ncn2c1=O [temozolomide],Median O.S. (XRT + Chemo),58 weeks
